Test results as given in PMC7173924.
These are yes or no findings as the source states them, for the method shown. In cells and extracts the contact can be indirect.

Chains of the proteins cited; added tags and fusions are not shown.
UniProt Q9UJ55: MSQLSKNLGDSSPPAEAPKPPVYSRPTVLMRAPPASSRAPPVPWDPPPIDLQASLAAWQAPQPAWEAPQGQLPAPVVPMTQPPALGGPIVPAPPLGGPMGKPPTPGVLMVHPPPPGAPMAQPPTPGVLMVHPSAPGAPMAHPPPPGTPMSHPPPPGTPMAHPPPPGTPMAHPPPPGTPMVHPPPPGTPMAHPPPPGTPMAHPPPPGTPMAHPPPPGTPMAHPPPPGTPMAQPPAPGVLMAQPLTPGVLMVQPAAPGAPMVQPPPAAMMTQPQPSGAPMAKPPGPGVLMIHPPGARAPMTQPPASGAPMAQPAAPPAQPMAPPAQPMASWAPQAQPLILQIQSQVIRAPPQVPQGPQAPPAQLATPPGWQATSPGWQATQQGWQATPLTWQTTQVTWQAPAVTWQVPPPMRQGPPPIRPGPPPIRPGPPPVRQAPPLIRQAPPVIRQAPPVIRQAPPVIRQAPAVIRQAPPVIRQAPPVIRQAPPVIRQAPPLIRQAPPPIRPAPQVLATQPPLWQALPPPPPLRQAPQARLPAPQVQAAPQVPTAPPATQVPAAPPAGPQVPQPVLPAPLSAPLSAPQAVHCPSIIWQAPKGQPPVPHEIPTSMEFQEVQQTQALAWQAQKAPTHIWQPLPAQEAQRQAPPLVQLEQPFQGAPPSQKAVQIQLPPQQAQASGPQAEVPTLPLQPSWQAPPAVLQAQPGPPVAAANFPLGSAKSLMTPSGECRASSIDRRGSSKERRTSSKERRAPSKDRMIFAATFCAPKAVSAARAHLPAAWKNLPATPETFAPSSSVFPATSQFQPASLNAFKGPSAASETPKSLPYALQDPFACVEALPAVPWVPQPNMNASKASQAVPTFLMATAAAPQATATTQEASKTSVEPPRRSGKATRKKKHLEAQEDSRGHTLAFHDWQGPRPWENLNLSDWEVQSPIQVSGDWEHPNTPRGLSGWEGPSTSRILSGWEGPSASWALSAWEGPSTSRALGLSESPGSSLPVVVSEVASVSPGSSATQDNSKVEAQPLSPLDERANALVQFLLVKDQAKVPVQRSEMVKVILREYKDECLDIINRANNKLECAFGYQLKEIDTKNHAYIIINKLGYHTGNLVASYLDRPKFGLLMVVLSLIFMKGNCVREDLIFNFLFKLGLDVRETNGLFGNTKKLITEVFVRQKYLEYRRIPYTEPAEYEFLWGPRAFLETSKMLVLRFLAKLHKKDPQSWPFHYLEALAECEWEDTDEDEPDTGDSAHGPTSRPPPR

Target: FLAG-MAGEL2 (tetracycline-inducible, stable cell line) (human) (UniProt Q9UJ55)
Assay: co-IP; lysate of stable HEK 293 T-Rex Flp-In cells induced (+tet) or not (-tet) to express FLAG-MAGEL2; anti-FLAG magnetic agarose beads; lysis buffer 25 mM Tris-Cl, 150 mM NaCl, 1% IGEPAL, 5% glycerol pH 7.4; in triplicate; blots for endogenous USP7 and CRY1

binding: no binding
B1: endogenous CRY1 (protein, UniProt Q16526 1-586)
chain: MGVNAVHWFRKGLRLHDNPALKECIQGADTIRCVYILDPWFAGSSNVGINRWRFLLQCLEDLDANLRKLNSRLFVIRGQPADVFPRLFKEWNITKLSIEYDSEPFGKERDAAIKKLATEAGVEVIVRISHTLYDLDKIIELNGGQPPLTYKRFQTLISKMEPLEIPVETITSEVIEKCTTPLSDDHDEKYGVPSLEELGFDTDGLSSAVWPGGETEALTRLERHLERKAWVANFERPRMNANSLLASPTGLSPYLRFGCLSCRLFYFKLTDLYKKVKKNSSPPLSLYGQLLWREFFYTAATNNPRFDKMEGNPICVQIPWDKNPEALAKWAEGRTGFPWIDAIMTQLRQEGWIHHLARHAVACFLTRGDLWISWEEGMKVFEELLLDADWSINAGSWMWLSCSSFFQQFFHCYCPVGFGRRTDPNGDYIRRYLPVLRGFPAKYIYDPWNAPEGIQKVAKCLIGVNYPKPMVNHAEASRLNIERMKQIYQQLSRYRGLGLLASVPSNPNGNGGFMGYSAENIPGCSSSGSCSQGSGILHYAHGDSQQTHLLKQGRSSMGTGLSGGKRPSQEEDTQSIGPKVQRQSTN
